Measured values reported in patent publication US7851436.
No constants are given. Whether binding was seen depends on the method and setting. Binding seen in cells or lysates may run through a third protein. Some binding calls cover weakened binding; strength is not graded here.

The chains behind the UniProt entries cited, without tags or fusion partners. Where a name states a change or a piece, a line headed by the entry shows the natural chain unless it says otherwise.
UniProt P06756: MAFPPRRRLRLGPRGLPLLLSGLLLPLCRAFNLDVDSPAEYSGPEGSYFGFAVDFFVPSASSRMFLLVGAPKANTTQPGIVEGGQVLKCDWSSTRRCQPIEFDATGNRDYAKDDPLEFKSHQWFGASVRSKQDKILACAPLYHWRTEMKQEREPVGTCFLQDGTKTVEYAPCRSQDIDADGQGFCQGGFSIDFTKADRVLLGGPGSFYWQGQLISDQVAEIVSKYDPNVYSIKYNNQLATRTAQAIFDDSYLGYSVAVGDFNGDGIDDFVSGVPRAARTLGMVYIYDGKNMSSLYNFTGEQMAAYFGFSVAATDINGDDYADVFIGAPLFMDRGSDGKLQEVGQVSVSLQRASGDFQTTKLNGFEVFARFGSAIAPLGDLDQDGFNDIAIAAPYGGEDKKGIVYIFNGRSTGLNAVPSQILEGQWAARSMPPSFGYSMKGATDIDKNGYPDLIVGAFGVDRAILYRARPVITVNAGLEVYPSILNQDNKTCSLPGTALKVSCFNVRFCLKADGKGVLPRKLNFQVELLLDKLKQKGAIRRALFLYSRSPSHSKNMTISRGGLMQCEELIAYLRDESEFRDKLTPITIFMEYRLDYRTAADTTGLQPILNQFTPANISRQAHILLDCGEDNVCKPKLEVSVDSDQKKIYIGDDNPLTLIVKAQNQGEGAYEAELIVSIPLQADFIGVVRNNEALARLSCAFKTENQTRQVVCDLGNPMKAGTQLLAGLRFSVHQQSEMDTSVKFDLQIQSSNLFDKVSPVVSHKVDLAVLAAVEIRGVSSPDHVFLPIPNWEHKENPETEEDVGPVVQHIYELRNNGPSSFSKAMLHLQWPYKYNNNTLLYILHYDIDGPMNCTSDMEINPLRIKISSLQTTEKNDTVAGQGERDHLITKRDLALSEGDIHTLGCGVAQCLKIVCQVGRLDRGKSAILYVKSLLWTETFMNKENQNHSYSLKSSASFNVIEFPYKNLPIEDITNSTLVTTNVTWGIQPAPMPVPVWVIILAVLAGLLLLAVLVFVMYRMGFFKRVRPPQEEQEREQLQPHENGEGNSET
UniProt P05106: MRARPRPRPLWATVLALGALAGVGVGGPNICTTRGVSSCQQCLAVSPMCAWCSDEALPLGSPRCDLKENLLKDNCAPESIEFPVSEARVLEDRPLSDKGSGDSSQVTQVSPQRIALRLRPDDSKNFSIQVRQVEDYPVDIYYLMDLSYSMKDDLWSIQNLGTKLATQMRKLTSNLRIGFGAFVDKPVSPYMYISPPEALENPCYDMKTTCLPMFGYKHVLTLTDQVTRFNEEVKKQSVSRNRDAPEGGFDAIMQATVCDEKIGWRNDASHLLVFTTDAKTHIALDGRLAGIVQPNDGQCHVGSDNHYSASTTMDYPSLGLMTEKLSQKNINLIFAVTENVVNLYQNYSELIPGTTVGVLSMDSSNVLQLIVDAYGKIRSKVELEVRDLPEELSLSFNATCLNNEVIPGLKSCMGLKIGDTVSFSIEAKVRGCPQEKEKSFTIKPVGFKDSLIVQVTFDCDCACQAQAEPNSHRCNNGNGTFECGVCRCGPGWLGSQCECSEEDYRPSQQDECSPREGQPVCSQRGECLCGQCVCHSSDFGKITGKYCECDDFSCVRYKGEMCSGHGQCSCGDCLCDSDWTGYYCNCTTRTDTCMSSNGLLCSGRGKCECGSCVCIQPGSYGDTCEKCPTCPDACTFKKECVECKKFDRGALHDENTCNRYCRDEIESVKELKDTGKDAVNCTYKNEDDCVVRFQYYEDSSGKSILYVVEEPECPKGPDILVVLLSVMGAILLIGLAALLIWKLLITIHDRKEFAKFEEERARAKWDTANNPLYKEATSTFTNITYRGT
UniProt P18084: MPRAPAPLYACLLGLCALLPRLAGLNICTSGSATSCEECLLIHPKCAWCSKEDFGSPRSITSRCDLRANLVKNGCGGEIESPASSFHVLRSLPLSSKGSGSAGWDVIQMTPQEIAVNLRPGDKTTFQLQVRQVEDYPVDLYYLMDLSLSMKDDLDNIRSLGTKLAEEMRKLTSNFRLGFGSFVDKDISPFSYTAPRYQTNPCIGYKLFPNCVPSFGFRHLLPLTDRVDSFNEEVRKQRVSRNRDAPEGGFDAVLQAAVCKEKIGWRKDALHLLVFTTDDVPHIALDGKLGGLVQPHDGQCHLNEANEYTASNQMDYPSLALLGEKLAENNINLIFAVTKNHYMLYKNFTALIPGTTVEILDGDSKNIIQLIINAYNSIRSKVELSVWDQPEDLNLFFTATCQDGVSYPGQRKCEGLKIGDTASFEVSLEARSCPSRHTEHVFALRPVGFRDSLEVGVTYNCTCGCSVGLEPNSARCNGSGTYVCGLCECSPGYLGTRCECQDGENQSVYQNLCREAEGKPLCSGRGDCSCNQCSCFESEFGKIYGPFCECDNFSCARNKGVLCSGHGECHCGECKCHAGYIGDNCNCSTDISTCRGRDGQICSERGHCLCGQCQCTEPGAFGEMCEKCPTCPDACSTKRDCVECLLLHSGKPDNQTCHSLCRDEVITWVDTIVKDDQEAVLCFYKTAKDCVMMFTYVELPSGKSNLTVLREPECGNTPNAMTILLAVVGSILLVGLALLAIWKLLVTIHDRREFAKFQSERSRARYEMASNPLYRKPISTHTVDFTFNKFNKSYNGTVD

Tests used:
integrin αVβ3 (human) [1] = biological target: T1, integrin αVβ3 (human) (UniProt P06756+P05106); assay: GST pull-down from surface-biotinylated Ch-1 lysate, Western blot
integrin αVβ5 (human) [2] = biological target: T2, integrin αVβ5 (human) (UniProt P06756+P18084); assay: as above
integrin αVβ3 (human) [3] = biological target: T1, integrin αVβ3 (human); assay: GST pull-down from surface-biotinylated Ch-1 lysate, Western blot (FIGS. 3D-K)
integrin αVβ5 (human) [4] = biological target: T2, integrin αVβ5 (human); assay: as above

binding (integrin αVβ3 (human) [1]): binds
binding (integrin αVβ5 (human) [2]): binds
binding (integrin αVβ3 (human) [3]): binds
binding (integrin αVβ5 (human) [4]): binds
Substance: GST-PIIBNP (GST fusion of human Type IIB collagen amino propeptide, exons 3-8) (from UniProt P02458 30-134) (ligand)
